# Values joined by “and” are separate entries in the source; they are usually repeats but may differ in a detail not shown here. Identical values can stand only once. Some of the results follow. For some of these results: The source does not settle which construct or isoform was used.
# How the values were obtained:
# Assay in all cases: protein microarray (ProtoArray v5.0), streptavidin-Alexa Fluor 647
# Conditions in all cases: 3'-biotin; 20 mM Tris (pH 7.5), 5 mM MgCl2, 100 mM KCl, 0.1% Tween-20, A/T-rich and random oligonucleotide blockers; temperature not stated; high values mean tight binding
# TP53I3 = target: T1, TP53I3 (UniProt Q53FA7)
# T1 sequence: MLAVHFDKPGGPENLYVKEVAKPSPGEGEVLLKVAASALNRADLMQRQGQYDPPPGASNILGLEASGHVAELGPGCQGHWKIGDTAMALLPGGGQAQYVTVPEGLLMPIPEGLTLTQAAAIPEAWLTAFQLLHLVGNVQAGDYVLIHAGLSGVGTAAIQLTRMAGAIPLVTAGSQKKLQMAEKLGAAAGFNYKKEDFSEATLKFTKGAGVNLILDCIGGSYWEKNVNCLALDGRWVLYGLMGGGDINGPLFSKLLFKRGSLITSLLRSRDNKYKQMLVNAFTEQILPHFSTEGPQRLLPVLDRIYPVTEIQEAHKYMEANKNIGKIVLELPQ
# TPH1 (human) = tested on: TPH1 (human)
# TPM3 (human) = tested on: TPM3 (human)
# TPM4 (human) = tested on: TPM4 (human)
# TPP1 (human) = tested on: TPP1 (human)
# TPT1 (human) = tested on: TPT1 (human)
# TRA16 (human) = tested on: TRA16 (human)
# TRAPPC3 (human) = tested on: TRAPPC3 (human)
# TRBV5-4 (human) = tested on: TRBV5-4 (human)
# TRIB2 (human) = tested on: TRIB2 (human)
sequence,measurement,setting,value
GGTGACAGGGGTATGGGGAGGGG [G4-2 biotinylated (Ct1)],binding signal,TP53I3,3.64 z-score
same,binding signal,TPH1 (human),-0.391 z-score
same,binding signal,TPM3 (human),-0.39 z-score and -0.395 z-score
same,binding signal,TPM4 (human),-0.387 z-score
same,binding signal,TPP1 (human),-0.387 z-score
same,binding signal,TPT1 (human),-0.389 z-score
same,binding signal,TRA16 (human),-0.399 z-score
same,binding signal,TRAPPC3 (human),-0.396 z-score
same,binding signal,TRBV5-4 (human),-0.37 z-score
same,binding signal,TRIB2 (human),-0.386 z-score
